From patent publication US20140178394A1
These are yes or no findings as the source states them, for the method shown. Binding calls can cover weak binding; strength is not graded here.

Target: HLA-A*0201 on the CEM.T2 cell line (T2) (human)
Experiment: T2 cell HLA-A*0201 stabilization, flow cytometry

Binder: VLVPPLPSL [antigen peptide N4-145 (…)]
- binding: binds
